In the test the target is T1, GluD1 (wild type) overexpressed in HEK293T cells (rat) (UniProt Q62640).
T1 sequence: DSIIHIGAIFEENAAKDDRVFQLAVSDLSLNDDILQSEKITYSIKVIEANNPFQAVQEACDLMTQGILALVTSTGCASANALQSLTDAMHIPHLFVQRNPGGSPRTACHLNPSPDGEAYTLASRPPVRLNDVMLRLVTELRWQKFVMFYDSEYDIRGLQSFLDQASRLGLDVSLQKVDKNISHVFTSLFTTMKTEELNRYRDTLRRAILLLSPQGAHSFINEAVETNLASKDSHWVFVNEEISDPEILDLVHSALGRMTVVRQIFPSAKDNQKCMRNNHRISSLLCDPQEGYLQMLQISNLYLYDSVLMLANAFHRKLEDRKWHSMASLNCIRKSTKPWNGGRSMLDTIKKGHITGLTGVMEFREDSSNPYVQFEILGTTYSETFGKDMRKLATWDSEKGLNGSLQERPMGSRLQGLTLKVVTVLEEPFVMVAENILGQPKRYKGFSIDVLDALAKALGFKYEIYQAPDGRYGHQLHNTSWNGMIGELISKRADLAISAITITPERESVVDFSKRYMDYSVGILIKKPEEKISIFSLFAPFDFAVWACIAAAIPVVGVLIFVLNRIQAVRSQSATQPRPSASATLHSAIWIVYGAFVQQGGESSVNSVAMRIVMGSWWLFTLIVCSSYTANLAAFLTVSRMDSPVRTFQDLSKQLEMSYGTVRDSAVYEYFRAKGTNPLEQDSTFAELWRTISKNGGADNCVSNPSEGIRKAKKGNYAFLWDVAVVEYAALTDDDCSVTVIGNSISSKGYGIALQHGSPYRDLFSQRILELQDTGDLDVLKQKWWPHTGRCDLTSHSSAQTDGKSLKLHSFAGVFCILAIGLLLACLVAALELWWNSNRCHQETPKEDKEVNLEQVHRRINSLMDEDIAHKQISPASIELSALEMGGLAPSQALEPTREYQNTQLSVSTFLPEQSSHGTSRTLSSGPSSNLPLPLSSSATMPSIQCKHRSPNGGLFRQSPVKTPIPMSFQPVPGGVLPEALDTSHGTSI
Description: cell binding followed by immunoblotting; HEK293T cells transfected with GluD1, 48 h later D-serine (0.3 mM) or vehicle for 30 min, then recombinant Cbln1 1 ug/ml with D-serine or vehicle for 4 h; rinsed thrice with PBS, lysate on SDS-PAGE, blot with anti-His and anti-GluD1; only the binder purified.

Chains of the proteins cited; added tags and fusions are not shown. Residues count along the entry.
UniProt P23435, residues 22-193: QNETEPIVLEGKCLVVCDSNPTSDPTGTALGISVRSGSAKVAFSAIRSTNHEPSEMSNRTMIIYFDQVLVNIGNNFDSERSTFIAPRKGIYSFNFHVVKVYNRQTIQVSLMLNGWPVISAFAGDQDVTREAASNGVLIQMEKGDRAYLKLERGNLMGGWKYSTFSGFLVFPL

These are yes or no findings as the source states them, for the method shown. Some binding calls cover weakened binding; strength is not graded here.

As for “recombinant Cbln1 protein (HA- and His-tagged) (from UniProt P23435 22-193) (ligand)”, the binding result is “binds”.

(Values after publication PMC11785871, “D-Serine disrupts Cbln1 and GluD1 interaction and affects Cbln1-dependent synaptic effects and nocifensive responses in the central amygdala” (Cellular and Molecular Life Sciences: CMLS, 2025).)
